Measured values from PubChem BioAssay AID1345085 (National Center for Advancing Translational Sciences (NCATS), 2018).
The inconclusive results got no clear call from the source; some entries with a clear call stand among them for comparison. Where the call is inconclusive, the potency comes from a doubtful curve fit. Active and inactive are the calls of the source. Calls follow the shape of the dose curve; as a rule, active = well fitted cell-killing curve with a large enough effect; inconclusive = small, poorly fitted or top-dose-only effect, or effect the other way; inactive = no such curve, though single readings can be large or run the other way.

tested on: SW626; experiment: Confirmatory qHTS for gynecologic anti-cancer compounds from libraries of approved drugs and bioactive compounds; conditions: gynecologic cancer cell panel viability, ATPlite luminescence, 48 h; series mostly up to 57.6 µM; activity change, negative = viability loss: at the top concentration; also: nearly all actives have a fitted effect of over 55% in size
Summary of the method: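 Seeding 1,000 cells per well preceded overnight (16 h) attachment, after which 48 h drug treatment across 57.5 uM–0.977 nM (11 points) was applied. Remaining cellular ATP, detected by ATPlite luminescence, defined IC50.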
% is scaled to controls: 0 for no effect and ±100 for the full control effect; potency is read from the fitted curve at half-maximal effect.

SMILES	Potency	activity change, negative = viability loss
COc1cc2c(c(OC)c1OC)-c1ccc(OC)c(=O)cc1[C@@H](NC(C)=O)CC2	inconclusive: 158 µM [cytotoxic, partial curve, poor fit]	–
Cc1ccc(C(=O)N(CCCN)C(c2nc3cc(Cl)ccc3c(=O)n2Cc2ccccc2)C(C)C)cc1 (configuration not stated)	active: 9.68 µM	–
CC[C@H](CC#N)OC(=O)N[C@@H](C)c1cccc(NC(=O)Nc2ccc(-c3cnco3)c(OC)c2)c1	–	inactive: -9.55%
Cc1ccc(C(=O)Nc2ccc(CN3CCN(C)CC3)c(C(F)(F)F)c2)cc1C#Cc1cnc2cccnn12	active: 21.7 µM	–
CCc1cccc(CC)c1NC(=O)N1Cc2[nH]nc(NC(=O)c3ccc(N4CCN(C)CC4)cc3)c2C1	inconclusive: 13.7 µM [cytotoxic, partial curve]	–
Nc1ccccc1NC(=O)c1ccc(CNc2nccc(-c3cccnc3)n2)cc1	active: 0.685 µM	–
NC(=O)c1cccc2cn(-c3ccc([C@@H]4CCCNC4)cc3)nc12	–	inactive: -13.2%
CN[C@@H](C)C(=O)N[C@H]1CN(C(=O)CC(C)C)CC[C@H]2CC[C@@H](C(=O)NC(c3ccccc3)c3ccccc3)N2C1=O	–	inactive: -11.7%
Cc1cc(SCc2sc(-c3ccc(C(F)(F)F)cc3)nc2C)ccc1OCC(=O)O	–	inactive: 2.54%
CN1CCN(c2ccc(OC(F)(F)F)c(Nc3ncc4c(n3)-c3c(c(C(N)=O)nn3CCO)CC4)c2)CC1	–	inactive: 3.2%
CC(C)[C@@H](CS(=O)(=O)C(C)C)N1C(=O)[C@@](C)(CC(=O)O)C[C@H](c2cccc(Cl)c2)[C@H]1c1ccc(Cl)cc1	–	inactive: 12.1%
O=c1c2ccccc2nc2n1CCc1c-2[nH]c2ccccc12	–	inactive: -13.4%
CCOc1ccc(Nc2nc(-c3c(C)nc4ccccn34)cs2)cc1	–	inactive: -4.72%
Cc1nc(NC(=O)N2CCCC2C(N)=O)sc1-c1ccnc(C(C)(C)C(F)(F)F)c1 (configuration not stated)	inconclusive: 0.0544 µM [cytotoxic, full curve]	–
Cc1nc(N)sc1-c1ccnc(Nc2ccc(N3CCOCC3)cc2)n1	inconclusive: 4.85 µM [cytotoxic, full curve]	–
CCN(CC)CCNC(=O)c1c(C)[nH]c(/C=C2\C(=O)Nc3ccc(F)cc32)c1C	active: 22.4 µM	–

Gathered by group, those above with an aryl methoxy group.
SMILES	Potency	activity change, negative = viability loss
COc1cc2c(c(OC)c1OC)-c1ccc(OC)c(=O)cc1[C@@H](NC(C)=O)CC2	inconclusive: 158 µM [cytotoxic, partial curve, poor fit]	–
CC[C@H](CC#N)OC(=O)N[C@@H](C)c1cccc(NC(=O)Nc2ccc(-c3cnco3)c(OC)c2)c1	–	inactive: -9.55%

(listing goes on)

SMILES	Potency	activity change, negative = viability loss
Nc1ccn([C@@H]2O[C@H](CO)[C@@H](O)C2(F)F)c(=O)n1	inconclusive: 3.43 µM [cytotoxic, partial curve, poor fit]	–
C[C@@H](Oc1cc(-c2cnn(C3CCNCC3)c2)cnc1N)c1c(Cl)ccc(F)c1Cl	active: 21.7 µM	–
Nc1ncn([C@@H]2O[C@H](CO)[C@@H](O)[C@H]2O)c(=O)n1	–	inactive: 0.885%
CN1CCN(CCOc2cc(OC3CCOCC3)c3c(Nc4c(Cl)ccc5c4OCO5)ncnc3c2)CC1	inconclusive: 19.3 µM [cytotoxic, partial curve]	–
OCCNC1CCCc2c1[nH]c1ccc(-c3ccccc3)cc21 (configuration not stated)	active: 19.3 µM	–
Nc1cccc(-c2cc3c(Oc4cccc(O)c4)ncnc3[nH]2)c1	inconclusive: 10.9 µM [cytotoxic, single point]	–
Cn1c(=O)c(-c2c(Cl)cccc2Cl)cc2cnc(Nc3cccc(C(=O)O)c3)nc21	inconclusive: 2.73 µM [cytotoxic, full curve]	–
CN1CCN(c2cccc(Nc3nc4c(-c5ccc(S(C)(=O)=O)cc5)cccn4n3)c2)CC1	inconclusive: 38.5 µM [cytotoxic, partial curve, poor fit]	–
COCCOc1ccc2c(c1)ncn2-c1ccc2cccc(N3CCC(N)CC3)c2n1	inconclusive: 10.9 µM [cytotoxic, partial curve, poor fit]	–
CCCC(=O)O[C@]1(C(=O)CCl)[C@@H](C)C[C@H]2[C@@H]3CCC4=CC(=O)C=C[C@]4(C)[C@@]3(F)C(=O)C[C@@]21C	inconclusive: 0.485 µM [rising, partial curve, poor fit]	–
COc1c(C)c2c(c(O)c1C/C=C(\C)CCC(=O)OCCN1CCOCC1)C(=O)OC2	–	inactive: -9.7%
CN1C2CCC1CC(OC(=O)[C@H](CO)c1ccccc1)C2 (some centres not stated)	–	inactive: -16.8%
Cc1cc(C(C)Nc2ccccc2C(=O)O)c2nc(N3CCOCC3)cc(=O)n2c1 (configuration not stated)	inconclusive: 34.3 µM [cytotoxic, single point]	–
NCCOc1cc(C(=O)Nc2cc(OCCN)c3ccccc3n2)nc(C(=O)Nc2cc(OCCN)c3ccccc3n2)c1	inconclusive: 13.7 µM [cytotoxic, partial curve]	–
Cc1c(NC(=O)OCC2COCCN2)cn2ncnc(Nc3ccc4c(cnn4Cc4cccc(F)c4)c3)c12 (configuration not stated)	inconclusive: 43.2 µM [cytotoxic, single point]	–
CCn1c(-c2nonc2N)nc2c(C#CC(C)(C)O)ncc(OCC3CCCNC3)c21 (configuration not stated)	inconclusive: 7.69 µM [cytotoxic, partial curve]	–
